Test results from publication PMC12351941.
No constants are given. Whether binding was seen depends on the method and setting. In cells and extracts the contact can be indirect. Some results given as binding are weak or reduced against the parent protein; the word gives no strength.

Target: T1, Murine double minute 4 (MDM4) (rat (endogenous in H9C2)) (UniProt Q5XIN1)
T1 sequence: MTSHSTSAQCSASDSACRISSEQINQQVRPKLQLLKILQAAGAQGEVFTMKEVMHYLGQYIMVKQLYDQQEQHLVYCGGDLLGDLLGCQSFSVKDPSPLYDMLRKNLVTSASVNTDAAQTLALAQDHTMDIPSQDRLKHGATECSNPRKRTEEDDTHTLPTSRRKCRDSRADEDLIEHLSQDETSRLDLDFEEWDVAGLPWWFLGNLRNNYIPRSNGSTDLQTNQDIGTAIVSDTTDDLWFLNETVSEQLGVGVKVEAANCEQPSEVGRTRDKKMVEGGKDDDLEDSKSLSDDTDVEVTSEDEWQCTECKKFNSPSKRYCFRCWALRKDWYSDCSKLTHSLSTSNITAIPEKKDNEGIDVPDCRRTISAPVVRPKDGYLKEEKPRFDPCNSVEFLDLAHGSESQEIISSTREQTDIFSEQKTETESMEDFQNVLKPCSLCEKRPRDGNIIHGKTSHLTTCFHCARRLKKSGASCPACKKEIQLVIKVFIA
Assay: co-IP; H9C2 lysates (cells with 1 uM Dox for 24 h or control medium) incubated overnight at 4 °C with Protein A magnetic beads pre-coated with anti-MDM4 antibody or IgG; immunoblot of USP8 and MDM4

binding: binds
B1: Ubiquitin-specific protease 8 (USP8) (enzyme, UniProt D3ZN39 1-1081)
chain: MPAVASVPKELYLSSSLKDLNKKTEVKPEKTSTKNYIHSAQKIFKAAEECRLDRDEERAYVLYMKYVAVYNLIKKRPDFKQQQDYYLSILGPANIKKAIEEAERLSESLKLRYEEAEVRKQLEEKDRREEEQLQQQKRQEMGREDSGAAAKRSVENLLDSKTKIQRVNGEKSEGGAAAERGAVTAKELYTMMMDKNTSLIIMDARKIQDYQHSCILGSLSVPEEAISPGVTANWIEAKLSDDSKDTWKKRGSVDYVVLLDWFSSAKDLLLGTTLRSLKDALFKWESKAVLHHEPLVLEGGYENWLLCYPQFTTNAKVTPPPRSRPEEVSVSLDFTYPSLEEPVPSKLPAQMPPPPLEANEKAQLVTDQDGKPRPLVQSALAGPSVAPKAEASPIIQPVPATKNVPQVDRTKKPAVKLPEDHRMKSESTDQSGRVLSDRSTKPVFTSPATMLTDEEKARIHEETALLMEKNRQEKELWERQQKEQKEKLRREEQERKAGKTQDAEERDFTENQHKAKDGQEKRDSKQTKAEDREPPADGAQDATGTQRQSKSEHDASDAKVSVEGKRCPMSEVQKRPADVSSASSMSGELSAGKAQREPLTRARSEEMGRIVPGLPLGWAKFLDPITGTFRYYHSPTNTVHMYPPEMAPSSVPPSTPPTHKVKPQIPAERDREPSKLKRSYSSPDITQALQEEEKRRPAVTPTVNRENKPPCYPKAEISRLSASQIRNLNPVFGGSGPALTGLRNLGNTCYMNSILQCLCNAPHLADYFNRNCYQDDINRSNLLGHKGEVAEEFGIIMKALWTGQYRYISPKDFKVTIGKINDQFAGSSQQDSQELLLFLMDGLHEDLNKADNRKRHKEENNDHLDDFKAAEHAWQKHKQLNESIIVALFQGQFKSTVQCLTCHKKSRTFEAFMYLSLPLASTSKCTLQDCLRLFSKEEKLTDNNRFYCSHCRARRDSLKKIEIWKLPPVLLVHLKRFSYDGRWKQKLQTSVDFPLENLDLSQYVIGPKSSLKKYNLFSVSNHYGGLDGGHYTAYCKNAARQRWFKFDDHEVSDISVSSVRSSAAYILFYTSLGPRVTEAAT
